For 1 molecule, binding results are on record in PMC11904109.

Results are given in words; binding and its absence hold for the method and conditions named. In cells and extracts the contact can be indirect. Some entries that bind do so weakly or less than the wild type. Tags and fused reporters may be left off the sequences shown.

The assay concerns the target rabbit MKRN3 (makorin ring finger protein 3), intact, fused with GFP-N173 or GFP-C155 for BiFC (rabbit) (UniProt G1T456). Put plainly: split reporter; BiFC: MKRN3 fused with GFP-N173 and with GFP-C155, plasmid pairs transfected 1:1 into HEK-293T cells, green fluorescence observed 48 h after transfection.

B1: rabbit MKRN3 (makorin ring finger protein 3), intact, fused with GFP-N173 or GFP-C155 for BiFC (protein, UniProt G1T456 1-515)
chain: MEEPAAPSGAQEASGAQAGAEAAGEGASGPSLPECETSGESVAPDTAPARAALGLVPLRVAPSPAHLRMVGLRHVQAARGGARPSHLPSRSTGSWTKQVVCRYYLHGLCKEGENCRYSHDLSGRQVAREGHGAPPRASADRGPSMAAPSQPPTQEVAEAAPAASSSSLPLIGSAAERGRFEAELECAGQGAVGGSGVEGWEEAVEFVPGQPYRGRRVASVPEAPLQSSVTEREQMAVGMGQQMAVGMGMQLCPHAARGQCFRGESCMYLHGEICDMCGLQALHPLDAAQRADHRKACVEAHEKDMELSFAVQRSMDKVCGICMEVVYDKVNPSDRRFGILSNCNHPFCLKCIRRWRRARHFENRIVKSCPQCRVTSNFVIPSEFWVEEEEEKQRLIQQYKEALSNKPCRYFAEGRGHCPFGEHCFYKHSYPEGQGEEPQGRGGGPSAAYWHQLSQPVQLGEGSLLFKSSKKELVTLRLASLLFKRFLSLRNEFPFSEEQWDLLHYQLEEYFNLNL
With B1, the binding result is on record as “binds”.
